Test results published in the supplement of paper PMC10849652.
This is one part of the list.

Sequences of proteins named here, by UniProt entry; tags and fusion partners are left off. A change or cut given only in a name is not applied to a line headed by its entry.
UniProt Q92934: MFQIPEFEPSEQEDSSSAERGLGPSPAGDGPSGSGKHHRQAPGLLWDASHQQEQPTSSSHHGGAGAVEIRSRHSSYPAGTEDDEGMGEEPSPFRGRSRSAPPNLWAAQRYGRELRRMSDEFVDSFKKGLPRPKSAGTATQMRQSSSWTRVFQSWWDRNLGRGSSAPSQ
UniProt Q9NRL2: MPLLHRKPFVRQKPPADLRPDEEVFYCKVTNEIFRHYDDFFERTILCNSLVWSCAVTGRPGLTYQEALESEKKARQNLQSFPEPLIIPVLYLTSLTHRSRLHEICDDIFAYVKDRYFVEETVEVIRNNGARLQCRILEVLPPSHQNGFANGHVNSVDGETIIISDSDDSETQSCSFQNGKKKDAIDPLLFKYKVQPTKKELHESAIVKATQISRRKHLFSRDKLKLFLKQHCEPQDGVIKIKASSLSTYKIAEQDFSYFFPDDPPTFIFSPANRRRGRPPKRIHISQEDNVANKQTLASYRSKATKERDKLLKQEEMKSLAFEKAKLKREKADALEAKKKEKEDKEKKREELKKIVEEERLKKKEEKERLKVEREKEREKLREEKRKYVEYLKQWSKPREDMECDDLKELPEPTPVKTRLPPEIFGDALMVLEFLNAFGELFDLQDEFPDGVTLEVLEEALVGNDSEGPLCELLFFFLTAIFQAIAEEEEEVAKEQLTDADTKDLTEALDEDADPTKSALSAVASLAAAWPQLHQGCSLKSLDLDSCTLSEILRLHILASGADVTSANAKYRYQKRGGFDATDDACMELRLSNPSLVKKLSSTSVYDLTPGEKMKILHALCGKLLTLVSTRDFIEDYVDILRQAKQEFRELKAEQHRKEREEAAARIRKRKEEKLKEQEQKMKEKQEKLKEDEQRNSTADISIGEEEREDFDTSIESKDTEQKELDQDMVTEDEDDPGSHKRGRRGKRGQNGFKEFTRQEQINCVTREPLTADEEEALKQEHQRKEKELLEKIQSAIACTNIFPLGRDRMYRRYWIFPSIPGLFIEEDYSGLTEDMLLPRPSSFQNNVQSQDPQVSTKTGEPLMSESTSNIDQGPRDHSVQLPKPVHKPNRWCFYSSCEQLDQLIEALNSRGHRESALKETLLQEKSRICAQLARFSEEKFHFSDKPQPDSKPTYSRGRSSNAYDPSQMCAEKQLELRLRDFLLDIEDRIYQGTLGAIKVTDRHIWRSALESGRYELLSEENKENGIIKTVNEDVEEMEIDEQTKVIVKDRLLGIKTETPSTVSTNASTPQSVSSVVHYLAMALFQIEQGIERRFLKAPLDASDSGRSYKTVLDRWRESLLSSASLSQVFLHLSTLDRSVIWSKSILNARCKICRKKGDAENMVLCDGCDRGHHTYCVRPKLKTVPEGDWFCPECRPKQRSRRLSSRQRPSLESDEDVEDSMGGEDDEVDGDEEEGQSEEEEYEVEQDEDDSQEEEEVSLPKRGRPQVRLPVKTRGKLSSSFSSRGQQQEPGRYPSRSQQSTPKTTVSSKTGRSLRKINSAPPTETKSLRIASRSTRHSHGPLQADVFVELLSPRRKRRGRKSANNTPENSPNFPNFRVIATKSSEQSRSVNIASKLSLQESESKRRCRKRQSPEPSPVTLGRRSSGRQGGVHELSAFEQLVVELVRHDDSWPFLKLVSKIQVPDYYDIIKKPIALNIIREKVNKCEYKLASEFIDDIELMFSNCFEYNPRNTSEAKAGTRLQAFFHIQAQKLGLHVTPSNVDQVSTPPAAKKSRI
UniProt Q9P281: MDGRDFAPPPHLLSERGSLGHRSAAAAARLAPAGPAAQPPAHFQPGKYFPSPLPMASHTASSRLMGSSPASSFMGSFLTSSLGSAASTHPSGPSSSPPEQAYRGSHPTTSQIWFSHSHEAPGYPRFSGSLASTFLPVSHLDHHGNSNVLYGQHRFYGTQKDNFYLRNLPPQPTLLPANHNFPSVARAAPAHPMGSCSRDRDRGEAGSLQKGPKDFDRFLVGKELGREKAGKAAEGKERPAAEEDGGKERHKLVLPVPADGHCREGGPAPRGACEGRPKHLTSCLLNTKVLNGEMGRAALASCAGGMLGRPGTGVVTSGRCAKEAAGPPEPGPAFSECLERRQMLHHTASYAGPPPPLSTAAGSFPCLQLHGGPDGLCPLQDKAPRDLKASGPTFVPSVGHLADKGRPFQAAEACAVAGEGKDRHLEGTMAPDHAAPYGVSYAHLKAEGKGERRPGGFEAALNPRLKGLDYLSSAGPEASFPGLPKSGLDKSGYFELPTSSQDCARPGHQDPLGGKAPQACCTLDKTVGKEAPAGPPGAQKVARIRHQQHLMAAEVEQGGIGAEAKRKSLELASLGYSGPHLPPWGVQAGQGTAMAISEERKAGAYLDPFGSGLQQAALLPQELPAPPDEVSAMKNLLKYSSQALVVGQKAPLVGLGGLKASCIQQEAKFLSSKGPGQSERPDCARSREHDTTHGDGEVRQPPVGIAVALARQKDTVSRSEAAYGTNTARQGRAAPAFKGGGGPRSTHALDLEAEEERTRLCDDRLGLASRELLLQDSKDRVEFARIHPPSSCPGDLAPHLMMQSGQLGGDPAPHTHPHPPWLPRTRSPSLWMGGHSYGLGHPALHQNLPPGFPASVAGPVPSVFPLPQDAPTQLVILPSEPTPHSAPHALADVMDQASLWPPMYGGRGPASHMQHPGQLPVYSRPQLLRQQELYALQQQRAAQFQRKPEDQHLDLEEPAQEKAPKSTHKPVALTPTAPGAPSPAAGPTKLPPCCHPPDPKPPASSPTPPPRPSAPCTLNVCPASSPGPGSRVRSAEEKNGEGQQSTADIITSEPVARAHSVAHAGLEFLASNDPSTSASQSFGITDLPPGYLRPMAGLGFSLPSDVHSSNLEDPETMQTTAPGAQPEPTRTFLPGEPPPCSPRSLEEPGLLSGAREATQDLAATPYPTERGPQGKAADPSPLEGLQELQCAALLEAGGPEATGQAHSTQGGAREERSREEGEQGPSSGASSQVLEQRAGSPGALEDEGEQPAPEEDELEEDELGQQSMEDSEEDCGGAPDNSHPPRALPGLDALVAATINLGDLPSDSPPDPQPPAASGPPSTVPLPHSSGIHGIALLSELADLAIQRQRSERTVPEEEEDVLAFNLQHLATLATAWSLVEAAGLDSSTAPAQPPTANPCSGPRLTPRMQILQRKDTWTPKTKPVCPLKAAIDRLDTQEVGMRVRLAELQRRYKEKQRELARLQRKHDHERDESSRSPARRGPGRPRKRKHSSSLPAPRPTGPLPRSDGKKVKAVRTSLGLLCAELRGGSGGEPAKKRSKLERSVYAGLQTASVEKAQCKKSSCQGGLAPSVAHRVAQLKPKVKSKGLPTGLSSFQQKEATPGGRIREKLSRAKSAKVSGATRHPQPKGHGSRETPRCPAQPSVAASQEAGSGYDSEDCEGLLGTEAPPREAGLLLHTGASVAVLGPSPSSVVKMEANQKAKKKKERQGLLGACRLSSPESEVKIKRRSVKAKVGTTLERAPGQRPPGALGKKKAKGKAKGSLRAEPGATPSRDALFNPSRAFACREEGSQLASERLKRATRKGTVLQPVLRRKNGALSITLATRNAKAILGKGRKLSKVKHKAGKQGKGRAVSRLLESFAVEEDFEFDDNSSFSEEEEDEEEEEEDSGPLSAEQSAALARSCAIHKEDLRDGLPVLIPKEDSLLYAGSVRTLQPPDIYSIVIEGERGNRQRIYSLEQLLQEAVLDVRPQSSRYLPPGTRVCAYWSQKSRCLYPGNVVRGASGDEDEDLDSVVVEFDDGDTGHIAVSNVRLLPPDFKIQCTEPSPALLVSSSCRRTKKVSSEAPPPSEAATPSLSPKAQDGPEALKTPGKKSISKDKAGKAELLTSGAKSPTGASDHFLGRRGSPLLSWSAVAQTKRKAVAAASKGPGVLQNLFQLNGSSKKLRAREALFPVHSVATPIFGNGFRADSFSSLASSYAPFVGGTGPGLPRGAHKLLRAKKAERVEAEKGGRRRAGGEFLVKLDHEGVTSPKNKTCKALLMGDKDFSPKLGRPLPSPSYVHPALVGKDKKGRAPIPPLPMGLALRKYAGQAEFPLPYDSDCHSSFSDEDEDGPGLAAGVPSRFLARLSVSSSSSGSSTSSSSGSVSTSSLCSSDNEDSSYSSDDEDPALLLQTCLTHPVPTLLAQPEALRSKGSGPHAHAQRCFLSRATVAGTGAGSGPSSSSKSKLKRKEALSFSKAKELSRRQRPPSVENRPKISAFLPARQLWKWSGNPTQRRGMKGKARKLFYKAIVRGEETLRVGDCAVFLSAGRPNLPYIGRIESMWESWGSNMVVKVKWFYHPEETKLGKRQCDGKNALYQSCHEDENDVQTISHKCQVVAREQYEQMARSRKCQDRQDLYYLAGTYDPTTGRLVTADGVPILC
UniProt Q9BXY8: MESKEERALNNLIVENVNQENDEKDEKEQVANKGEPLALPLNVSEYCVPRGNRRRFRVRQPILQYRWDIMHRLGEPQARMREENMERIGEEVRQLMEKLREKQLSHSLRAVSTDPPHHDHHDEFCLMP
UniProt Q9NP55: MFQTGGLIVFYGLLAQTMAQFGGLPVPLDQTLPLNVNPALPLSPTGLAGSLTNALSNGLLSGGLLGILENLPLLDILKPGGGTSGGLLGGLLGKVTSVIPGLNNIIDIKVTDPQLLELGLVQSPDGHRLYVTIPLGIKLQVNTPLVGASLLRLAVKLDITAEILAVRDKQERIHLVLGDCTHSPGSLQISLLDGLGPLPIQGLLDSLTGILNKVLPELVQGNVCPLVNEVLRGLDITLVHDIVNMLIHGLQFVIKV
UniProt Q9HCU9: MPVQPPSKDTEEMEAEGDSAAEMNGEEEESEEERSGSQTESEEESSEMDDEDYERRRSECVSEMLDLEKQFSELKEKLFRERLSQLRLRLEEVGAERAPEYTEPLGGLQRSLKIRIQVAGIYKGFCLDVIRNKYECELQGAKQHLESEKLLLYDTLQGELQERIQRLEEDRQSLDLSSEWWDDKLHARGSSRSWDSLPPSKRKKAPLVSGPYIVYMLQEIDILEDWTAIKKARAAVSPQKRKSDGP
UniProt Q92994: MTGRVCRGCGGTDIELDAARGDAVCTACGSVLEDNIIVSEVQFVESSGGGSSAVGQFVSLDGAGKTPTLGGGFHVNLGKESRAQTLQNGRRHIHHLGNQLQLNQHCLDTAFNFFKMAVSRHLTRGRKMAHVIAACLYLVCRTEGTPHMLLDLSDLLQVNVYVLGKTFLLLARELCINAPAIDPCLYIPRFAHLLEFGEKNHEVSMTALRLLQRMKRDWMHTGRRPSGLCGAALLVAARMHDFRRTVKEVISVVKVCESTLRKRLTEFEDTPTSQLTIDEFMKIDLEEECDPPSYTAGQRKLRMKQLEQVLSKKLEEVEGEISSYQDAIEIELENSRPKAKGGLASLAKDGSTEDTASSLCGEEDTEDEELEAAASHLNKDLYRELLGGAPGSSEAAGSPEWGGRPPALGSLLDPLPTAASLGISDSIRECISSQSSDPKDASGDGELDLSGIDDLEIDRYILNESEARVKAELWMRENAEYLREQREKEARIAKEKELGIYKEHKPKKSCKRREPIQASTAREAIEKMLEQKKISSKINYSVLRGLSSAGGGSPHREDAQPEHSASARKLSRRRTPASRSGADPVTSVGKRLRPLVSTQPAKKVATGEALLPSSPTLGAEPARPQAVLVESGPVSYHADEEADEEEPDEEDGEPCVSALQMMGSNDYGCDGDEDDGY
UniProt O00499: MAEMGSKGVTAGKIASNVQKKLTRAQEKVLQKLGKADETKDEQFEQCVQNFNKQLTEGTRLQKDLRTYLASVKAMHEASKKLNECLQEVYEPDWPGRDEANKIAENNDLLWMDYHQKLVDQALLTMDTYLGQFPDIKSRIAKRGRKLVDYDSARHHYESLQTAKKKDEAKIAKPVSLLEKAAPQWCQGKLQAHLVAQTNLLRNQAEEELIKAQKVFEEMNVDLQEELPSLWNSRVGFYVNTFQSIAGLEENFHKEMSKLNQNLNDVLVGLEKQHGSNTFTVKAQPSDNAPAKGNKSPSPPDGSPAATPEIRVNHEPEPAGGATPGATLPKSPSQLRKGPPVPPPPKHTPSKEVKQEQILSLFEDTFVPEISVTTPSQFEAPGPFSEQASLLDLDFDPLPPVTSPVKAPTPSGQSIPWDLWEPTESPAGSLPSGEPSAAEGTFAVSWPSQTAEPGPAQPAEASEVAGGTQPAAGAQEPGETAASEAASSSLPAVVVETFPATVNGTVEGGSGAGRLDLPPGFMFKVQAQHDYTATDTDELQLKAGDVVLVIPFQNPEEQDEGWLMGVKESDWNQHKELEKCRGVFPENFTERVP
UniProt Q16611: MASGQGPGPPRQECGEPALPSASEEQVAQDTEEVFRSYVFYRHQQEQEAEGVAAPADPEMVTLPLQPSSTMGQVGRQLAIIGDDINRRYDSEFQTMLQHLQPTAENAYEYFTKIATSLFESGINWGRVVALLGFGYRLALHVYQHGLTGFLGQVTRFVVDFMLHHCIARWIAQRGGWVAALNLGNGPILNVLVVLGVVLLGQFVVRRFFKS

Experiments:
Test in all cases: log2 fold change, soluble protein after heating vs DMSO (PISA); higher = thermal stabilisation; K562 lysate, 10 uM; active = over 0.2 and 3.5 SD of the protein, either way, in both replicates (recomputed)
vemurafenib = compound: CCCS(=O)(=O)Nc1ccc(F)c(C(=O)c2c[nH]c3ncc(-c4ccc(Cl)cc4)cc23)c1F [vemurafenib]
How it was run: (§1)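 Thermal stability, expressed as log-two fold change relative to solvent controls, is given from duplicates. Crude K562 extract in PBS pH 7.4 with 1 mM MgCl2, at 1 mg/mL protein, was treated with 10 μM compound for 30 min and heated in aliquots for 3 min across 48°C-58°C. After pooling, adjustment to 0.5% NP-40 at 4°C and centrifugation at 21,000xg for 90 min, supernatant protein was measured by TMTpro 16plex LC-MS/MS with channel sums equalised.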

barasertib = compound: CCN(CCCOc1ccc2c(Nc3cc(CC(=O)Nc4cccc(F)c4)[nH]n3)ncnc2c1)CCOP(=O)(O)O [barasertib]
How it was run: as §1

[1] = compound: CC[C@@H]1C(=O)N(C)c2cnc(Nc3ccc(C(=O)NC4CCN(C)CC4)cc3OC)nc2N1C1CCCC1
How it was run: as §1

[2] = compound: CCn1c(C(=O)N(C2CC2)C2CC2)cc2c3c(ncn3C)c(Nc3cc(C)n(C)n3)nc21
How it was run: as §1

[3] = compound: CCn1cc(-c2ccnc3[nH]c(-c4cccc(CN(C)C)c4)cc23)c(-c2ccc(NC(=O)N(C)C)cc2)n1
How it was run: as §1

[4] = compound: CN1CCC(CNc2ccc3ncc(-c4cccc(OC(F)(F)F)c4)n3n2)CC1
How it was run: as §1

saracatinib = compound: CN1CCN(CCOc2cc(OC3CCOCC3)c3c(Nc4c(Cl)ccc5c4OCO5)ncnc3c2)CC1 [saracatinib]
How it was run: as §1

sotrastaurin = compound: CN1CCN(c2nc(C3=C(c4c[nH]c5ccccc45)C(=O)NC3=O)c3ccccc3n2)CC1 [sotrastaurin]
How it was run: as §1

[5] = compound: CCCS(=O)(=O)Nc1ccc(F)c(C(=O)c2c[nH]c3ncc(Cl)cc23)c1F
How it was run: as §1

volasertib = compound: CC[C@@H]1C(=O)N(C)c2cnc(Nc3ccc(C(=O)N[C@H]4CC[C@H](N5CCN(CC6CC6)CC5)CC4)cc3OC)nc2N1C(C)C [volasertib]
How it was run: as §1

Measured: log2 fold change

BAD (UniProt Q92934)
inactive: vemurafenib 0.07 | barasertib -0.009 | [1] -0.089 | [2] -0.005 | [3] -0.065 | [4] 0.041 | saracatinib 0.172 | sotrastaurin -0.046

BRCA2 (UniProt P51587)
inactive: vemurafenib 0.052 | barasertib 0.242 | [1] 0.152 | [2] -0.09 | [3] -0.005 | [4] 0.127 | saracatinib 0.015 | sotrastaurin -0.064

BAZ1A (UniProt Q9NRL2)
inactive: vemurafenib 0.085 | barasertib 0.082 | [1] 0.007 | [2] -0.051 | [3] -0.151 | [4] 0.049 | saracatinib 0.01 | sotrastaurin 0.042

2 consecutive records already listed, for reference:
BRCA2 (UniProt P51587)
inactive: vemurafenib 0.052 | barasertib 0.242 | [1] 0.152 | [2] -0.09 | [3] -0.005 | [4] 0.127 | saracatinib 0.015 | sotrastaurin -0.064

BAZ1A (UniProt Q9NRL2)
inactive: vemurafenib 0.085 | barasertib 0.082 | [1] 0.007 | [2] -0.051 | [3] -0.151 | [4] 0.049 | saracatinib 0.01 | sotrastaurin 0.042

Next part.

BAHCC1 (UniProt Q9P281)
inactive: vemurafenib 0.11 | [5] 0.004 | [1] -0.247 | volasertib 0 | [3] 0.415 | [4] 0.219 | saracatinib 0.025 | sotrastaurin 0.127

BEX2 isoform 2 (UniProt Q9BXY8)
inactive: vemurafenib 0.126 | [5] -0.077 | volasertib 0.083 | [3] -0.163 | [4] 0.131

BRAF, A0A2R8Y8E0
inactive: vemurafenib 1.34 | [1] -0.287

BCAP31, A0A2R8Y5M6
inactive: vemurafenib -0.062 | [1] 0.155 | [3] 0.049 | [4] -0.179

BPIFA1 (UniProt Q9NP55)
inactive: vemurafenib 0.066 | [1] -0.267 | [2] 0.149 | [3] 0.54 | [4] -0.597 | saracatinib -0.44

BRMS1 (UniProt Q9HCU9)
inactive: vemurafenib 0.036 | [5] -0.02 | [1] 0.023 | volasertib 0.027 | [2] -0.079 | saracatinib -0.045 | sotrastaurin -0.149

BPNT1 (UniProt A6NF51)
inactive: vemurafenib -0.058 | barasertib 0.056 | [1] -0.049 | [2] -0.052 | saracatinib 0.092

BRF1 (UniProt Q92994)
inactive: vemurafenib 0.061 | barasertib 0.035 | [1] 0.022 | [2] -0.051 | [3] -0.071 | [4] -0.038 | saracatinib -0.04 | sotrastaurin -0.013

BIN1 (UniProt O00499)
inactive: vemurafenib -0.023 | [5] 0.172 | [1] -0.016 | volasertib -0.214 | [3] -0.235 | [4] 0.139

BAK1 (UniProt Q16611)
inactive: vemurafenib 0.045 | [5] 0.056 | [1] 0.15 | volasertib -0.064 | [2] -0.138 | [3] -0.005 | [4] -0.025 | saracatinib 0.175 | sotrastaurin 0.014

BIRC6, A0A3B3IUB9
inactive: vemurafenib -0.081 | [5] 0.087 | [1] -0.108 | volasertib -0.004 | [2] 0.047 | [3] 0.07 | [4] 0.069 | saracatinib 0.06 | sotrastaurin -0.13

BRD7 isoform 2 (UniProt Q9NPI1)
inactive: [5] 0.004 | barasertib -0.026 | volasertib -0.005 | [2] -0.034 | [3] 0.224 | [4] 0.009 | saracatinib -0.067 | sotrastaurin 0.015
